28 molecules from PubChem BioAssay AID328 (DTP/NCI, 2004) can be followed below.

For the assay, the system named is BDF1 mice, P388 leukemia ip, median survival T/C. In words: NCI In Vivo Anticancer Drug Screen. Data for tumor model P388 Leukemia (intraperitoneal) in B6D2F1 (BDF1) mice. The note with it: T/C endpoint: median survival time, higher T/C = longer survival. Summed up: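 Reported as T/C, where T is the survival measurement in dosed animals and C the same measurement in vehicle controls.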

Setting [1] is: dose: 200.0 mg/kg/injection, schedule: Q04DX003 (ip), vehicle: saline.
Where [2] appears, read: dose: 400.0 mg/kg/injection, schedule: Q04DX003 (ip), vehicle: saline.
Setting [3] is: dose: 50.0 mg/kg/injection, schedule: Q01DX009 (ip), vehicle: saline with Tween-80.
[4] abbreviates: dose: 100.0 mg/kg/injection, schedule: Q01DX009 (ip), vehicle: saline with Tween-80.
[5] abbreviates: dose: 200.0 mg/kg/injection, schedule: Q01DX009 (ip), vehicle: saline with Tween-80.
[6] abbreviates: dose: 50.0 mg/kg/injection, schedule: Q01DX009 (ip), vehicle: saline.
The mark [7] stands for this setting: dose: 400.0 mg/kg/injection, schedule: Q01DX009 (ip), vehicle: saline with Tween-80.

The list is a part of this screen's results and no random one: it gathers tests that were run many times, whatever their T/C, doses with no T/C, and many T/C values between a quarter and a half above the control. Other doses and runs of a compound stand elsewhere. T/C is the treated group as % of the vehicle group. Some doses have a count of surviving animals in place of a T/C: the source files T/C as zero there, which appears to mark a toxic dose or a test without result, not a measured value. Some survivor counts are full or nearly so, which does not show that the dose was tolerated: survival well below the control is almost never listed, so the zero probably covers shortened survival too. Counts of survivors are from the toxicity check (mostly the fifth day) where no day follows; animals may have died later. Schedule codes are those of the source, read here as Q, the interval in days (D) or hours (H), X, the number of doses. Some entries hold several experiments; the values are given in rising order. For survival time, this PubChem deposit counts one and a half times the control or more as active, and values a quarter to a half above the control carry no call in these data; other NCI protocols may use other cut-offs. Some T/C values are followed by the survivors on the day toxicity was checked, most often the fifth; where none is given, no animal had died by that day.

For `O=[n+]1ccn2ccccc2c1`, the T/C (dose: 100.0 mg/kg/injection, schedule: Q01DX009 (ip), vehicle: saline) was 128 % of control. Also, the survivor count (dose: 150.0 mg/kg/injection, schedule: Q01DX009 (ip), vehicle: saline) is on record as 4 of 6 and the survivor count (dose: 300.0 mg/kg/injection, schedule: Q04DX003 (ip), vehicle: saline) is recorded as 0 of 6.
Regarding `CN1CCN(c2nc3cccnc3s2)CC1`, the survivor count is 2 of 6 under setting [1] and 0 of 6 under setting [2].
For `c1ccc2c(c1)nnn1c3cnccc3nc21`, for the setting “dose: 12.5 mg/kg/injection, schedule: Q01DX009 (ip), vehicle: saline with Tween-80”, the T/C was 139 % of control. Also, the survivor count is 2 of 6 (dose: 25.0 mg/kg/injection, schedule: Q01DX009 (ip), vehicle: saline with Tween-80); 0 of 6 and 2 of 6 under setting [3]; 0 of 6 under setting [4]; 0 of 6 under setting [5].
Take `OCC(CO)(CO)CBr`: the survivor count (dose: 264.0 mg/kg/injection, schedule: Q01DX009 (ip), vehicle: saline) is 6 of 6. Besides, where the note is “dose: 400.0 mg/kg/injection, schedule: Q01DX009 (ip), vehicle: saline”, the T/C was 125 % of control.
For the molecule `Cc1ccc(CNCC(=O)O)cc1`, the survivor count is recorded as 4 of 6 (dose: 25.0 mg/kg/injection, schedule: Q01DX009 (ip), vehicle: water); 6 of 6 (dose: 50.0 mg/kg/injection, schedule: Q01DX009 (ip), vehicle: water); 6 of 6 (dose: 100.0 mg/kg/injection, schedule: Q01DX009 (ip), vehicle: water); 6 of 6 (dose: 200.0 mg/kg/injection, schedule: Q01DX009 (ip), vehicle: water).
As to `[Cl][Rh][Cl].c1cn[nH]c1.c1cn[nH]c1.c1cn[nH]c1.c1cn[nH]c1`, the survivor count (dose: 50.0 mg/kg/injection, schedule: Q01DX009 (ip), vehicle: Klucel (hydroxypropylcellulose) (HPC)) is 4 of 6.
As for `CO/N=C/c1cccnc1`, the survivor count (dose: 200.0 mg/kg/injection, schedule: Q01DX005 (ip), vehicle: saline) is listed as 2 of 6.
On to `C[NH-].C[NH-].[Br][Pt+2][Br]`, for which, for the setting “dose: 3.0 mg/kg/injection, schedule: Q04DX003 (ip), vehicle: other”, the T/C is 145 % of control. Moreover, the survivor count is 6 of 6 (dose: 25.0 mg/kg/injection, schedule: Q04DX003 (ip), vehicle: other) and 5 of 6 (dose: 50.0 mg/kg/injection, schedule: Q04DX003 (ip), vehicle: other).
For `COc1cccc2c1C(=O)c1c(O)c3c(c(O)c1C2=O)C[C@@](O)(C(=O)COC(=O)c1cccnc1)C[C@@H]3OC1CC(N)C(O)C(C)O1` (stereo partly drawn), the T/C (dose: 3.0 mg/kg/injection, schedule: Q01DX009 (ip), vehicle: saline) is 125 % of control.
For `COc1cc(C=NCCN=Cc2cc(OC)c(OC)c(OC)c2)cc(OC)c1OC`, the survivor count by setting is: (dose: 50.0 mg/kg/injection, schedule: Q04DX003 (ip), vehicle: saline with Tween-80) 5 of 5; (dose: 100.0 mg/kg/injection, schedule: Q04DX003 (ip), vehicle: saline with Tween-80) 6 of 6.
Consider `CCCC(O)Cc1c[nH]c(=O)[nH]c1=O` (stereo not drawn), for which the survivor count is, setting by setting: under setting [3], 5 of 6; under setting [4], 4 of 6; under setting [5], 2 of 6.
Consider `COc1cccc2c1C(=O)c1c(O)c3c(c(O)c1C2=O)C[C@@](O)(C(C)=O)C[C@@H]3OC1CC(NC=O)C(O)C(C)O1` (stereo partly drawn), for which the T/C is 145 % of control (dose: 1.0 mg/kg/injection, schedule: Q01DX009 (ip), vehicle: water); 137 % of control (dose: 2.0 mg/kg/injection, schedule: Q01DX009 (ip), vehicle: water); 135 % of control (dose: 4.0 mg/kg/injection, schedule: Q01DX009 (ip), vehicle: water).
Turning to `CC1(C)C=C(C(Br)c2ccc(Cl)cc2)C(=O)c2ccccc21` (stereo not drawn), the T/C under setting [6] was 130 % of control and the T/C (dose: 200.0 mg/kg/injection, schedule: Q01DX009 (ip), vehicle: saline) was 130 % of control.
Turning to `CCCCCC(C(C)=O)(C1=NC(C)(C)CC(C)O1)c1ccccc1` (stereo not drawn), under setting [2], the survivor count was 0 of 6.
Turning to `CCOC(=O)C1=C(N)CC(c2ccc(C#N)cc2)NC1c1cccc(OC)c1O` (stereo not drawn), the survivor count (dose: 400.0 mg/kg/injection, schedule: Q01DX001 (ip), vehicle: saline with Tween-80) is 6 of 6.
With `Cc1ccc(Oc2ccc3cc[n+](C)cc3c2)cc1`, the survivor count (dose: 25.0 mg/kg/injection, schedule: Q01DX009 (ip), vehicle: saline) was 3 of 6.
Take `CCC1CN1P(=O)(OCCC#N)N1CC1CC` (stereo not drawn): the survivor count is 6 of 6 under setting [4], 2 of 6 under setting [5] and 0 of 6 under setting [7].
Regarding `NNC1=NCCS1`, the survivor count is, setting by setting: (dose: 2.5 mg/kg/injection, schedule: Q01DX009 (ip), vehicle: saline with Tween-80) 1 of 6; (dose: 5.0 mg/kg/injection, schedule: Q01DX009 (ip), vehicle: saline with Tween-80) 0 of 6; (dose: 10.0 mg/kg/injection, schedule: Q01DX009 (ip), vehicle: saline with Tween-80) 0 of 6.
Regarding `Cc1nnc(NC(=O)CCl)s1`, the T/C reads like this: under setting [6], 127 and 131 % of control; (dose: 75.0 mg/kg/injection, schedule: Q01DX009 (ip), vehicle: saline) 136 % of control. Further, the survivor count (dose: 400.0 mg/kg/injection, schedule: Q01DX009 (ip), vehicle: Klucel (hydroxypropylcellulose) (HPC)) was 1 of 3.
As for `NC(COC(c1ccccc1)(c1ccccc1)c1ccccc1)C(=O)O` (stereo not drawn), the T/C (dose: 45.0 mg/kg/injection, schedule: Q01DX009 (ip), vehicle: Klucel (hydroxypropylcellulose) (HPC)) was 125 % of control; the T/C (dose: 135.0 mg/kg/injection, schedule: Q04DX003 (ip), vehicle: other) is 145 % of control; the T/C under setting [1] was 145 % of control [5 of 6 alive]. Moreover, the survivor count under setting [2] is reported as 2 of 6.
Turning to `C[C@H](CCC[C@H](C)OS(=O)(=O)c1ccccc1)OS(=O)(=O)c1ccccc1`, the T/C under setting [4] is 148 % of control.
In the case of `COc1ccc(C2C(C(=O)OCc3ccccc3)=C(C)NC(C)=C2C(=O)OCc2ccccc2)cc1`, the survivor count is recorded as 6 of 6 (dose: 25.0 mg/kg/injection, schedule: Q01DX009 (ip), vehicle: distilled water + Tween-80); 6 of 6 (dose: 50.0 mg/kg/injection, schedule: Q01DX009 (ip), vehicle: distilled water + Tween-80); 6 of 6 (dose: 100.0 mg/kg/injection, schedule: Q01DX009 (ip), vehicle: distilled water + Tween-80); 6 of 6 (dose: 200.0 mg/kg/injection, schedule: Q01DX009 (ip), vehicle: distilled water + Tween-80); 6 of 6 (dose: 400.0 mg/kg/injection, schedule: Q01DX009 (ip), vehicle: distilled water + Tween-80).
Regarding `COc1ccc(NC2=NCCS2)cc1`, under setting [5], the survivor count is on record as 4 of 6.
As to `CC[C@H]1CN2CCc3cc(OC)c(OC)cc3[C@@H]2C[C@@H]1C[C@@H]1c2cc(OC)c(OC)cc2CCN1CCN(CCCl)CCCl`, the T/C runs as follows: (dose: 7.2 mg/kg/injection, schedule: Q04DX003 (ip), vehicle: saline with Tween-80) 147 % of control; (dose: 18.0 mg/kg/injection, schedule: Q04DX003 (ip), vehicle: saline with Tween-80) 137 % of control. Also, for the setting “dose: 30.0 mg/kg/injection, schedule: Q04DX003 (ip), vehicle: saline with Tween-80”, the survivor count is 4 of 8.
Take `Nc1cc2nnc(-c3ccccc3)c(-c3ccccc3)n2n1`: the survivor count (dose: 200.0 mg/kg/injection, schedule: Q04DX002 (ip), vehicle: saline with Tween-80) is 6 of 6.
Consider `Cc1cccc2c1CC(C(C)C)C2` (stereo not drawn), for which, under setting [7], the survivor count is given as 0 of 6.
With `CC(=O)Nc1c([N+](=O)[O-])ccc(Cl)c1Cl`, the survivor count is, setting by setting: (dose: 200.0 mg/kg/injection, schedule: Q04DX003 (ip), vehicle: Klucel (hydroxypropylcellulose) (HPC)) 3 of 6; (dose: 400.0 mg/kg/injection, schedule: Q04DX003 (ip), vehicle: Klucel (hydroxypropylcellulose) (HPC)) 2 of 6.
In the case of `CCCCCCCCCCCCCCCCCCCCCCCCCCCC(=O)OCC(O)CO` (stereo not drawn), the T/C (dose: 0.5 mg/kg/injection, schedule: Q01DX009 (ip), vehicle: saline + alcohol) is 125 % of control.
